PubChem BioAssay AID1159578, Peter MacCallum Cancer Centre, 2015
The whole screen tested about 18,000 reagents; below is a random part of them. Over the whole deposit, about 1,030 (5.7%) are marked active. 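Inactive calls also include pools with fewer than 3300 nuclei, whose migration was not assessed.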 The raw values are shown without normalisation. Further read-outs or replicates are left out here.

Screen: 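Knock-downs that alter how fast lymphatic endothelial cells migrate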 (primary screen)
Cell system: human lymphatic endothelial cells
Reagent: siRNA pool against human genes, 40 nM
Time to read-out: 48 h after transfection
Read-out: 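High-content imaging of dye-stained cells in a scratch assay measures filled wound area and nuclei per well; duplicate means given as ratio to mock and robust z-score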
Reading the numbers: migration robust z-score: higher = faster migration into the scratch; nuclei per well: higher = more cells in the well
Hit rule: 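Pools averaging fewer than 3300 nuclei are never called; remaining pools count as changed when migration robust z lies outside -2 to 2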
Meaning of the calls: active = migration changed; inactive = no migration change, or too few cells

With knock-down of ENOPH1 the results were migration robust z-score -0.86; nuclei per well, duplicate mean 6702; inactive.
ZNF664 showed migration robust z-score 0.84; nuclei per well, duplicate mean 5062; inactive.
After knock-down of TUBA1B, the screen gave migration robust z-score -2.27; nuclei per well, duplicate mean 5852; active.
With knock-down of SLN, the screen gave migration robust z-score 1.19; nuclei per well, duplicate mean 6890; inactive.
With knock-down of RPL39L, the record shows migration robust z-score -0.41; nuclei per well, duplicate mean 5832; inactive.
MYF5 showed migration robust z-score 0.34; nuclei per well, duplicate mean 5861; inactive.
After knock-down of MROH2B, the record shows migration robust z-score -0.41; nuclei per well, duplicate mean 4991; inactive.
For OR13C8, the values are migration robust z-score -0.61; nuclei per well, duplicate mean 5276; inactive.
AGR2 gave migration robust z-score 2.97; nuclei per well, duplicate mean 6639; active.
After knock-down of XRCC6 the results were migration robust z-score -0.62; nuclei per well, duplicate mean 5318; inactive.
Depletion of POU4F1 gave: migration robust z-score 0.26; nuclei per well, duplicate mean 3975; inactive.
Knock-down of TBL2 gave: migration robust z-score -0.06; nuclei per well, duplicate mean 6952; inactive.

Reprinted from the entries so far, 2 entries:
POU4F1 → migration robust z-score: 0.26; nuclei per well, duplicate mean: 3975; Call: inactive
TBL2 → migration robust z-score: -0.06; nuclei per well, duplicate mean: 6952; Call: inactive
